What was measured:
MCF7 = experiment: cells; format: functional, cell-based; conditions: Homo sapiens, MCF7, 48 h
[1] = molecular target: Epidermal growth factor receptor (Homo sapiens, UniProt P00533); experiment: Inhibition of autophosphorylation of His6-tagged EGFR cytoplasmic domain (unknown origin) expressed in Sf9 cells by DELFIA time resolved fluorometry; format: cell-based

Sequences of proteins named here, by UniProt entry; tags and fusion partners are left off.
UniProt P00533, whole entry: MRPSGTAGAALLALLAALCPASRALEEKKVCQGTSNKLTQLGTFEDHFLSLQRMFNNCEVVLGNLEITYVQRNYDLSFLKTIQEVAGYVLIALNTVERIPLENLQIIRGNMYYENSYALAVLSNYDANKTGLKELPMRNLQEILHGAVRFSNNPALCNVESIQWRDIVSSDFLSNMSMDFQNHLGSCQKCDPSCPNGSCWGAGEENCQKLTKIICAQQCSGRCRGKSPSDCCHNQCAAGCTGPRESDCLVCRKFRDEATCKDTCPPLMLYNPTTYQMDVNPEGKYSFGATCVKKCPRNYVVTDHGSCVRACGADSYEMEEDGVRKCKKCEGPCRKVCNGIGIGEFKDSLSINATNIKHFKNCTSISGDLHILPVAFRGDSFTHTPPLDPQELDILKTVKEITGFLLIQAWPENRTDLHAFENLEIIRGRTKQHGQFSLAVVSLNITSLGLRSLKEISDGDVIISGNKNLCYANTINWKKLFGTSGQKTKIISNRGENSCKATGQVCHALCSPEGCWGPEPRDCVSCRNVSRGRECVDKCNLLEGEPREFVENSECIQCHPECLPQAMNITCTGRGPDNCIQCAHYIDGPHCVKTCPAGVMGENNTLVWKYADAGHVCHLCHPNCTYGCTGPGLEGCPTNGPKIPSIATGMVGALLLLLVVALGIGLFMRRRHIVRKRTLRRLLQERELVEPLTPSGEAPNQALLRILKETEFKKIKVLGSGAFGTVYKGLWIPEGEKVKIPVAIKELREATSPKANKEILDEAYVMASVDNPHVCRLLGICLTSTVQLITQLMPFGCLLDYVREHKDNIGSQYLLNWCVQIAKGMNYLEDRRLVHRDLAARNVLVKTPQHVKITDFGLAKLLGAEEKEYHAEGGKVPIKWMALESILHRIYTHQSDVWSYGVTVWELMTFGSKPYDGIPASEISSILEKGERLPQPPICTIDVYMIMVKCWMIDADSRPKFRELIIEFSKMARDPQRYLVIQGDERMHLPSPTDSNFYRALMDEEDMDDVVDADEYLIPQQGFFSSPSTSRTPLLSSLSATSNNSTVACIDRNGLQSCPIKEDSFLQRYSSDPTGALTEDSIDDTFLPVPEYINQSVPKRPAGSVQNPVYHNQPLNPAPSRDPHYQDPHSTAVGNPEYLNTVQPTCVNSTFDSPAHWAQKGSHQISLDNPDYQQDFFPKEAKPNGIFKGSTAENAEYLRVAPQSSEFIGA

Row | Compound | IC50 (MCF7) [µM] | IC50 [1] [µM]
1 | COc1ccc(NC(=O)/C=C/c2ccccc2)cc1 [N-(4-METHOXYPHENYL)CINNAMAMIDE] | 2.34 | 9.05
2 | O=C(/C=C/c1ccccc1)Nc1ccccc1F [N-(2-FLUOROPHENYL)CINNAMAMIDE] | 2.38 | 7.37
3 | O=C(/C=C/c1ccccc1)Nc1ccccc1 [N-PHENYLCINNAMAMIDE] | 5.24 | 23.2

Source: ChEMBL document CHEMBL3046969, “Synthesis, structure, and biological assay of cinnamic amides as potential EGFR kinase inhibitors” (Med Chem Res, 2013)
